# Measured values published in the supplement of paper PMC3334620.
# The full ranking holds about 33,000 sequences; the median of “E-score (-0.5 to 0.5)” is about -0.0014, and the highest 2% start at about 0.25. This is one part of the list.
# Biological target: T1, Cad1 (UniProt P24813)
# T1 sequence: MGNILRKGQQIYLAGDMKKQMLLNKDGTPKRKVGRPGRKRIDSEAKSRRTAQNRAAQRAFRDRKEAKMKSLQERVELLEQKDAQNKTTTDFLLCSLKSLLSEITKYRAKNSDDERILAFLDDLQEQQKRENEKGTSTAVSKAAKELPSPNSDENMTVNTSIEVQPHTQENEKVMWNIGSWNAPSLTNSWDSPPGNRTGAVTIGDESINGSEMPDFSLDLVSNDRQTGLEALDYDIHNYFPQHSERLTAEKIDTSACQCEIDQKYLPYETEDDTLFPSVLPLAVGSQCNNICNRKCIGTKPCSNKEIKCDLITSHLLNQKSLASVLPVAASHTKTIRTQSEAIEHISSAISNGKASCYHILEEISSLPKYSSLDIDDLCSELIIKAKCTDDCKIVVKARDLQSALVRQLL
# Assay: PBM E-score (8-mer binding enrichment) (E-score (-0.5 to 0.5)); higher = stronger / more preferred TF binding
# Conditions: protein concentration: 100 nM; construct: GST-full length
# Procedure, shortened: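 Full-length yeast transcription factors or their DNA-binding domains, GST-tagged and expressed with PURExpress, were applied at about 100-200 nM to universal all-10-mer Agilent arrays. These arrays had been made double-stranded by primer extension on fresh or once-stripped slides. Detection used fluorescent anti-GST, normalisation used masliner, and E-scores for ungapped eight-base words pooled with reverse complements came from the Universal PBM Analysis Suite.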
row,Sequence,PBM E-score
1,ACAAATGG,0.122
2,CTGTACTA,0.16
3,CTACACGC,-0.0937
4,AGAAGACC,-0.16
5,GATTAAAA,0.214
6,CACATGGC,-0.00544
7,CATACCAC,0.0561
8,CCGCGTGC,0.141
9,AGGTTCAT,-0.14
10,CGTAACTC,-0.138
11,ACACACCC,0.041
12,TGGATAAA,0.092
13,ACGTATCC,-0.16
14,CGTTGTCC,0.122
15,CCCTGGAA,-0.278
16,AGCACGGA,0.0459
17,TCACAAAA,0.253
18,CTTGTGTC,0.073
19,CCCGGGAC,-0.1
20,CTATGGCC,0.00017
21,CCTGCCGA,-0.0102
22,TCCATAGA,-0.0153

# An excerpt of these results, as tab-separated lines.
row	Sequence	PBM E-score
8	CCGCGTGC	0.141
10	CGTAACTC	-0.138
11	ACACACCC	0.041
14	CGTTGTCC	0.122
16	AGCACGGA	0.0459

# (cont.)

row,Sequence,PBM E-score
1,GTACACTA,0.0288
2,ATGCCAAG,0.00268
3,CCAACTCG,0.0519
4,ACGGGTTA,-0.231
5,CCCGAGGC,-0.068
6,CTCTAGTA,-0.129
7,AATTCTTC,0.0185
8,GCTCGTGA,-0.154
9,ACCACGAT,0.133
10,AGTAGTCC,-0.162
11,AAGTGGCG,0.0989
12,CATTCTGG,-0.0809
13,CTGAAGGA,-0.0928
14,CTCTAACA,0.0177
15,CATTACAC,0.0518
16,GGTTCTAA,0.122
17,CGATATGC,0.194
18,GTCCACCA,-0.106
19,CAGTTTGG,-0.0251
20,GCGTGAGC,0.182
21,CCTCTTTC,-0.206
22,CATACACA,-0.13

row,Sequence,PBM E-score
1,AATTAAAA,0.129
2,ATTCCCGA,-0.241
3,ACGTTTAC,0.0362
4,CGAATGGA,-0.0243
5,TGTTTTAA,0.182
6,AGACTCAA,0.0131
7,CTAAAACA,-0.0517
8,CCTCGGTC,-0.248
9,CATTAGAG,-0.0966
10,CTTAGAAC,0.11
11,AATGAATG,0.117
12,GGGGCGGA,-0.173
13,TACACTCA,0.0522
14,CATCCGGA,0.0199
15,ACCCACCA,-0.0533
16,ATGTCGAA,-0.00122
17,GCAATGCA,-0.00309
18,AGAGCCTG,0.049
19,AGTCAGAC,0.104
20,GAAAATGC,0.0805
21,CCTATCAG,-0.176
22,CAGATACC,-0.0463

row,Sequence,PBM E-score
1,AGCCGATC,0.0404
2,ATCAACGG,0.162
3,ACTGGTTG,0.139
4,GCCGGGCA,-0.146
5,AGAGATAG,-0.0187
6,ATACTTGA,-0.195
7,TCTAAGAA,0.246
8,ACAATTAC,0.119
9,AGACCGCG,0.165
10,ACTCGTAG,-0.103
11,GCCAGCGC,-0.021
12,AACCCCTA,-0.184
13,CAGACTGC,-0.0137
14,GTGAATGA,0.0303
15,ACTTTGGG,-0.0732
16,AAGGTACG,-0.12
17,ATCCACCG,-0.0297
18,CCCTTGAA,-0.0267
19,ACCGCTAT,-0.0161
20,TAAGGAGA,-0.0313
